From PubChem BioAssay AID504327 (National Center for Advancing Translational Sciences (NCATS), 2011)
Among all 390,000 compounds or so, about 820 (0.21%) were called active. The inconclusive results got no clear call from the source; some entries with a clear call stand among them for comparison. Calls follow the shape of the dose curve; as a rule, active = well fitted inhibition curve with a large enough effect; inconclusive = small, poorly fitted or top-dose-only effect, or another doubt; inactive = no such curve, though single readings can be large or run the other way. Potencies beside an inconclusive call are fits to weak or partial responses and may not hold up.

Sequences of proteins named here, by UniProt entry; tags and fusion partners are left off.
UniProt Q92830, whole entry, looked up: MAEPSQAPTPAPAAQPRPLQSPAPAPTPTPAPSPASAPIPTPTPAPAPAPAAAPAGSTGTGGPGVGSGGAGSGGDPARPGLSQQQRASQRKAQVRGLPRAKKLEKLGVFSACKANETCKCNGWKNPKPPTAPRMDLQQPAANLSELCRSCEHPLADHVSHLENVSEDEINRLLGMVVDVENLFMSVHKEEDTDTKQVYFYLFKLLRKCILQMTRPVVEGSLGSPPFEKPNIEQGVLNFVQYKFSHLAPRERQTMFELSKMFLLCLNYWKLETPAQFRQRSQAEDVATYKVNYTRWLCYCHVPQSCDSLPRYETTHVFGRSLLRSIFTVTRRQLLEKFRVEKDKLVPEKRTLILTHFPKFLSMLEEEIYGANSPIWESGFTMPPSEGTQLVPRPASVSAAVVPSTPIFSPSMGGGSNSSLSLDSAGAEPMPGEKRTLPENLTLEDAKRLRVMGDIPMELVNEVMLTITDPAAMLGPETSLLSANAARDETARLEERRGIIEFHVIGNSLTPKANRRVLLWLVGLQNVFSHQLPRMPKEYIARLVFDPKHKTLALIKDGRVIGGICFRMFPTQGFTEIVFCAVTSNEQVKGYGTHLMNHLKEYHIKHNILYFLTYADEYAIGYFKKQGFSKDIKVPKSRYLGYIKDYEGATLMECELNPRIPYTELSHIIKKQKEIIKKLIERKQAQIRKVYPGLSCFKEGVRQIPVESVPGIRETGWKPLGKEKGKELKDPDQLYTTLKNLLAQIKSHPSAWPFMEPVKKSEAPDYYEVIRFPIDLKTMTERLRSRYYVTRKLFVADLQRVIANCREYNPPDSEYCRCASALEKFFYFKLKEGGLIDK

Molecular target: Histone acetyltransferase KAT2A (Homo sapiens) (UniProt Q92830)
Experiment: qHTS Assay for Inhibitors of GCN5L2
Details: GCN5L2 HAT assay, ThioGlo1 CoA-SH fluorescence; activity change, negative = inhibition: at 58.9 µM (top of the series) unless noted
Procedure, shortened: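 Fluorescence readout, Ex340nm/Em540nm: ThioGlo1 (50uM final) reacts with free CoA thiol released as 20nM GCN5L2 acetylates H3(1-25) peptide (75uM) using acetyl-CoA (70uM). Compound and enzyme sat 15 min beforehand; 20 min room-temperature reaction.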
% is scaled to controls: 0 for no effect and ±100 for the full control effect; potency is read from the fitted curve at half-maximal effect.

**Q.** COc1cc(OC)c(OC)cc1CN1CCCC(C(=O)c2sccc2C)C1 (stereo not given) was tested. Which Potency did it give?
**A.** inactive

**Q.** For OCCNc1cc(Cl)ncn1, which Potency is on record?
**A.** inconclusive: 44.7 µM [inhibitor, single point]

**Q.** Which Potency does the source give for Fc1cc2[nH]cnc2cc1Cl here?
**A.** inconclusive: 0.141 µM [inhibitor, full curve, poor fit]

**Q.** Cc1ccc(/C=C/C(=O)OCC(=O)NCc2ccccc2)o1 was tested. Which Potency did it give?
**A.** inconclusive: 0.891 µM [inhibitor, single point]

**Q.** Cc1cc(C)c(S(N)(=O)=O)c(C)c1N(C)S(=O)(=O)c1ccc(Cl)cc1 was tested. Which Potency did it give?
**A.** inconclusive: 0.141 µM [inhibitor, full curve, poor fit]

**Q.** With CCSc1nnc(NC(=O)CSc2sc3c(O)cc(=O)[nH]c3c2C#N)s1 as the molecule, how does the Potency read?
**A.** inconclusive: 2.24 µM [inhibitor, partial curve]

**Q.** Which Potency does the source give for COc1ccc(Br)cc1C(=O)N/N=C/c1ccc2c(c1)n(C)c(=O)n2C here?
**A.** inconclusive: 31.6 µM [inhibitor, single point]

**Q.** S=c1nc(C2CCCCC2)[nH]c2ccccc12 was tested. Which Potency did it give?
**A.** inactive

**Q.** How did the Potency turn out when C#CCSc1nc2sc3c(c2c(=O)n1C)CCC3 was run?
**A.** inactive

**Q.** Which Potency does the source give for COC(=O)c1scc2c(=O)cc(C(F)(F)F)[nH]c12 here?
**A.** active: 22.4 µM

**Q.** How did the Potency turn out when Cc1cccc(C)c1OCC(O)Cn1c2ccccc2c2ccccc21 (stereo not given) was run?
**A.** inconclusive: 20 µM [inhibitor, single point]

**Q.** For Cc1cc(C)c(C2=Nn3c(C)nnc3SC2C)cc1C (stereo not given), which Potency is on record?
**A.** inactive

**Q.** Which Potency does the source give for CC(CN1c2ccccc2Sc2ccccc21)N(C)C (stereo not given) here?
**A.** inactive

**Q.** CCNc1ncc2nc(-c3ccc(OC)cc3)c(=O)n(Cc3cccc(OC)c3)c2n1 was tested. Which Potency did it give?
**A.** inconclusive: 15.8 µM [inhibitor, partial curve]

**Q.** CC1(C)[C@@H](OC(=O)CCC(=O)O)CC[C@@]2(C)[C@H]1CC[C@@]1(C)[C@H]2C(=O)C=C2[C@H]3C[C@](C)(C(=O)O)CC[C@]3(C)CC[C@@]21C was tested. Which Potency did it give?
**A.** inactive

**Q.** For Cc1ccc(C)c(NC(=O)c2ccc(CN3CC(=O)N4CCCCC4C3=O)cc2)c1 (stereo not given), which Potency is on record?
**A.** inactive

**Q.** Which Potency does the source give for CCOC(=O)C(C)Sc1ccc2nnc(CCNS(=O)(=O)c3ccccc3)n2n1 (stereo not given) here?
**A.** inconclusive: 39.8 µM [inhibitor, single point]

**Q.** With COc1ccccc1NC(=O)Cn1nc(C(F)(F)F)c2c1CCCC2 as the molecule, how does the Potency read?
**A.** inconclusive: 0.708 µM [inhibitor, full curve, poor fit]

**Q.** Which Potency does the source give for Nc1ccccc1Nc1cc(-c2ccccc2)[nH]n1 here?
**A.** inactive

**Q.** How did the Potency turn out when COc1cccc2cc(C(=O)C3=C(O)C(=O)N(CCN4CCOCC4)C3c3cccc(Cl)c3)oc12 (stereo not given) was run?
**A.** inconclusive: 0.224 µM [inhibitor, full curve, poor fit]

**Q.** With COCCn1c(=O)c(-c2ccccc2)nc2cnc(Oc3ccc(OC)cc3)nc21 as the molecule, how does the Potency read?
**A.** inactive

**Q.** COc1ccc(/C(N)=N/OC(=O)Cc2ccc(C)cc2)cc1 was tested. Which Potency did it give?
**A.** inactive

**Q.** With O=[N+]([O-])c1cc(N=Nc2ccc3ccccc3c2)ccc1O as the molecule, how does the Potency read?
**A.** inconclusive: 6.31 µM [inhibitor, single point]

**Q.** COc1ccccc1/C=C1/SC(=S)N(CCC(=O)Nc2cccnc2)C1=O was tested. Which Potency did it give?
**A.** inconclusive: 8.91 µM [inhibitor, single point]

**Q.** With Cc1ccnc(Nc2nc(-c3ccc(Cl)cc3)cs2)c1 as the molecule, how does the Potency read?
**A.** inconclusive: 39.8 µM [inhibitor, single point]

**Q.** Which Potency does the source give for COc1ccc(NC(=O)CSc2nnc(C)n2Cc2ccccc2)cc1 here?
**A.** inconclusive: 5.62 µM [inhibitor, single point]

**Q.** How did the Potency turn out when CCOC(=O)c1cnc(SCC(=O)N2CCC(C(N)=O)CC2)nc1N was run?
**A.** inconclusive: 8.91 µM [inhibitor, single point]

**Q.** With Cc1c(Cl)cccc1NS(=O)(=O)c1ccc2c(c1)C1C=CCC1C(c1ccc(C(=O)O)cc1)N2 (stereo not given) as the molecule, how does the Potency read?
**A.** inconclusive: 39.8 µM [inhibitor, single point]

**Q.** Which Potency does the source give for CC(=O)Nc1ccc(S(=O)(=O)NCC2CCC(C(=O)NCCN(CC(C)C)CC(C)C)CC2)cc1 (stereo not given) here?
**A.** inactive

**Q.** How did the activity change, negative = inhibition turn out when Cc1occc1C(=O)NCCc1cccc(Cl)c1 was run?
**A.** inconclusive: -66.9% [inhibitor]

**Q.** Which Potency does the source give for CC1CN(CCOc2ccccc2C(C)C)CC(C)O1 (stereo not given) here?
**A.** inconclusive: 0.141 µM [inhibitor, full curve, poor fit]

**Q.** With Cc1cc(C)c(S(=O)(=O)N2CCc3ccccc32)c(C)c1 as the molecule, how does the Potency read?
**A.** inconclusive: 2 µM [inhibitor, partial curve, poor fit]

**Q.** Which Potency does the source give for C/C(=N\NC(=O)c1ccc(Cl)cc1)c1ccccn1 here?
**A.** inconclusive: 31.6 µM [inhibitor, partial curve]

**Q.** How did the Potency turn out when O=C(O)[C@@H]1CCCN(S(=O)(=O)c2cccc3cccnc23)C1 was run?
**A.** inconclusive: 31.6 µM [inhibitor, single point]

**Q.** Which Potency does the source give for CCCCCCCCCCCCCCCCC(C(=O)O)C(O)(CC(=O)O)C(=O)O (stereo not given) here?
**A.** active: 1.12 µM

**Q.** COc1ccc(CN(Cc2cccn2C)C(=O)c2cc3cc(OC)ccc3[nH]2)cc1 was tested. Which Potency did it give?
**A.** inconclusive: 7.08 µM [inhibitor, single point]

**Q.** O=C(NCc1ccc2c(c1)OCO2)c1cc(-c2ccccc2)c(N2CCOCC2)s1 was tested. Which Potency did it give?
**A.** inactive

**Q.** How did the Potency turn out when CC1(C)CC(c2nc(-c3ccc(Cl)cc3)cs2)CCS1 (stereo not given) was run?
**A.** inconclusive: 8.91 µM [inhibitor, single point]

**Q.** COC(CNS(=O)(=O)c1ccc(Cl)cc1)c1ccccc1 (stereo not given) was tested. Which Potency did it give?
**A.** inactive

**Q.** With O=C(O)CCCN1C(=O)/C(=C\c2ccc(-c3nc4ccccc4s3)o2)SC1=S as the molecule, how does the Potency read?
**A.** inconclusive: 11.2 µM [inhibitor, partial curve]

**Q.** For N#Cc1c(Nc2ccccc2C(F)(F)F)s[nH]c1=O, which Potency is on record?
**A.** inconclusive: 14.1 µM [inhibitor, partial curve]

**Q.** With CCOc1ccc(CCNC(=O)COC(=O)c2ccc(C)c([N+](=O)[O-])c2)cc1OCC as the molecule, how does the Potency read?
**A.** inconclusive: 39.8 µM [inhibitor, single point]

**Q.** With COc1ccc(-c2nc3cnc(N4CCNCC4)nc3n(Cc3cccs3)c2=O)cc1 as the molecule, how does the Potency read?
**A.** inconclusive: 35.5 µM [inhibitor, single point]

**Q.** How did the Potency turn out when CN(CC(=O)Nc1cccc(F)c1)C(=O)c1ccc(OCC2CCCO2)cc1 (stereo not given) was run?
**A.** inconclusive: 1.12 µM [inhibitor, full curve]

**Q.** For O=C(Cn1ncc2c3ccccc3n(Cc3ccccc3)c2c1=O)NCc1ccco1, which Potency is on record?
**A.** inconclusive: 10 µM [inhibitor, partial curve, poor fit]

**Q.** How did the Potency turn out when CCCn1c(=S)[nH]c2cc(Cl)ccc21 was run?
**A.** inconclusive: 14.1 µM [inhibitor, partial curve]

**Q.** How did the Potency turn out when O=C(Nc1sc2c(c1C(=O)Nc1cccc(Cl)c1)CCCC2)c1cccs1 was run?
**A.** inconclusive: 39.8 µM [inhibitor, single point]

**Q.** Which activity change, negative = inhibition does the source give for CCCCNc1nc(CC)c2c(c1C#N)CCCC2 here?
**A.** inconclusive: -91% [inhibitor]

**Q.** How did the Potency turn out when O=C(NC1CCCC1)C(c1ccsc1)N(C(=O)Cc1cccs1)c1ccccc1 (stereo not given) was run?
**A.** inconclusive: 0.631 µM [inhibitor, single point]

**Q.** For CC(/C=C1\SC(=S)N(NS(=O)(=O)c2ccc(C)cc2)C1=O)=C\c1ccccc1, which Potency is on record?
**A.** inconclusive: 28.2 µM [inhibitor, single point]

**Q.** For CC1Cc2ccccc2N1S(=O)(=O)c1nnc(NC(=O)c2cccc(F)c2)s1 (stereo not given), which Potency is on record?
**A.** inactive

**Q.** How did the Potency turn out when CC(NC(=O)c1ccccc1)C(=O)OCC(=O)c1ccc(Br)cc1 (stereo not given) was run?
**A.** inconclusive: 0.631 µM [inhibitor, single point]

**Q.** O=C(NCCNC(=O)c1ccc(-c2ccc(Cl)c(Cl)c2)o1)c1cnccn1 was tested. Which Potency did it give?
**A.** inactive

**Q.** S=C(Nc1ccccc1Oc1ccccc1)NC1CCCC1 was tested. Which Potency did it give?
**A.** inactive

**Q.** How did the Potency turn out when CCOC(=O)c1sc(N2C(=O)C(O)=C(C(=O)c3ccco3)C2c2ccco2)nc1C (stereo not given) was run?
**A.** inactive

**Q.** For Cc1ccc(S(=O)(=O)NCCOc2nc(N3CCOCC3)nc(N3CCOCC3)n2)cc1, which Potency is on record?
**A.** inconclusive: 8.91 µM [inhibitor, single point]

**Q.** For Cc1ccc(CSCCC(=O)NCc2ccc(F)cc2Cl)cc1, which Potency is on record?
**A.** inactive

**Q.** For COc1ccc(-c2nnc(SCC(=O)N(C)C3CCCCC3)o2)cc1OC, which Potency is on record?
**A.** inactive

**Q.** For O=C(CCCCn1c(=O)c2ccccc2n(CC(=O)Nc2ccc(F)cc2F)c1=O)NCCc1ccccc1, which Potency is on record?
**A.** inactive

**Q.** How did the Potency turn out when Cc1cccc(NC(=O)NCc2ccc3c(c2)cc(C)n3C)c1 was run?
**A.** inactive

**Q.** How did the Potency turn out when Cc1cc(O)c(C(=O)/C=C/c2ccc(Cl)cc2)c(=O)o1 was run?
**A.** inconclusive: 11.2 µM [inhibitor, partial curve, poor fit]

**Q.** Which Potency does the source give for O=C(Cn1c(-c2ccccc2)noc1=O)Nc1ccc(N2CCCCCC2)cc1 here?
**A.** inconclusive: 39.8 µM [inhibitor, single point]

**Q.** For Cc1ccccc1C(=O)Nc1ccccc1-c1nnn(CC(=O)Nc2ccc3c(c2)OCCO3)n1, which Potency is on record?
**A.** inconclusive: 39.8 µM [inhibitor, single point]

**Q.** How did the Potency turn out when O=C(Nc1ncnc2sc3c(c12)CCCCC3)c1ccc(F)cc1 was run?
**A.** inconclusive: 39.8 µM [inhibitor, single point]

**Q.** How did the Potency turn out when O=C(CNc1cc(S(=O)(=O)N2CCOCC2)ccc1NCC1CCCO1)Nc1cccc(F)c1 (stereo not given) was run?
**A.** inconclusive: 39.8 µM [inhibitor, single point]

**Q.** O=C(NC1=NCCS1)C1CCN(S(=O)(=O)c2cc([N+](=O)[O-])ccc2Cl)CC1 was tested. Which Potency did it give?
**A.** inconclusive: 25.1 µM [inhibitor, partial curve]

**Q.** Which Potency does the source give for O=C(c1cc(-c2cccnc2)nc2ccc(Cl)cc12)N1CCN(S(=O)(=O)c2cccs2)CC1 here?
**A.** inconclusive: 2 µM [inhibitor, partial curve]

**Q.** How did the Potency turn out when COc1ccc(NC(=O)c2sc(=S)[nH]c2N)cc1 was run?
**A.** inconclusive: 39.8 µM [inhibitor, single point]

**Q.** Which Potency does the source give for Cc1cc(N2C(=O)C(O)=C(C(=O)c3cc4ccccc4o3)C2c2ccc(Br)cc2)no1 (stereo not given) here?
**A.** inconclusive: 39.8 µM [inhibitor, single point]

**Q.** Which Potency does the source give for CCOc1ccc(S(=O)(=O)NC2CCCC2)cc1 here?
**A.** inconclusive: 3.98 µM [inhibitor, single point]
